Experimental data as given in the supplement of paper PMC4604168 (melanoma cell lines).
Some of the results follow. Repeats are few or missing, and single values can be far off.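 Imaging used 1,536-well plates; nuclei positive for cleaved PARP by antibody were divided by total DNA-stained nuclei to yield the apoptosis fraction. Doses for screening kept most cells viable, and cell lines differ markedly in resting and induced cleaved-PARP levels.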

These molecules were tested on CBRC016 (line from a melanoma biopsy) (assay: cleaved PARP positive nuclei fraction relative to DMSO control; melanoma cells; higher = more apoptosis). Details: library dose: low library concentration; 72 h.

SMILES | cleaved PARP positive nuclei fraction
Cn1nnc2c(C(N)=O)ncn2c1=O [temozolomide] + COc1ccc(-c2ccc3c(N4CCOCC4)nc(N4C[C@@H](C)O[C@@H](C)C4)nc3n2)cc1CO [KU0063794] (first compound 2 µM, partner dose 0.02 µM) | 80.6%
Nc1cccc2c1CN(C1CCC(=O)NC1=O)C2=O (stereo not drawn) [lenalidomide] + c1cc(-c2cnn3cc(-c4ccc(OCCN5CCCCC5)cc4)cnc23)ccn1 [Dorsomorphin] (first compound 1 µM, partner dose 0.4 µM) | 97.5%
Cn1cncc1[C@@](N)(c1ccc(Cl)cc1)c1ccc2c(c1)c(-c1cccc(Cl)c1)cc(=O)n2C [tipifarnib] + c1cc(-c2cnn3cc(-c4ccc(OCCN5CCCCC5)cc4)cnc23)ccn1 [Dorsomorphin] (first compound 0.01 µM, partner dose 0.4 µM) | 55.9%
Cc1cc(N2CCOCC2)cc2[nH]c(-c3c(NC[C@@H](O)c4cccc(Cl)c4)cc[nH]c3=O)nc12 + Cn1cc(/C=C2\C(=O)Nc3cccnc32)c2ccccc21 [GW441756] (first compound 0.2 µM, partner dose 0.4 µM) | 37.6%
Cn1c(Nc2ccc(C(F)(F)F)cc2)nc2cc(Oc3ccnc(-c4ncc(C(F)(F)F)[nH]4)c3)ccc21 + Oc1nc(-c2ccc(C(F)(F)F)cc2)nc2c1CSCC2 [XAV939] (first compound 0.08 µM, partner dose 2 µM) | 49.3%
Cn1nnc2c(C(N)=O)ncn2c1=O [temozolomide] + CC(C)CCN1c2nc(Nc3cc(F)c(O)c(F)c3)ncc2N(C)C(=O)C1C [BID1870] (first compound 2 µM, partner dose 0.2 µM) | 135%
C[C@]1(c2nc3c(C(N)=O)cccc3[nH]2)CCCN1 [Veliparib] + O=C(O)C(=O)Nc1sc2c(c1C(=O)O)CCNC2 [TCS401] (first compound 1.4 µM, partner dose 1.66667 µM) | 97.8%
O=C(Nc1cccc(Cl)c1)Nc1ncc(CCNc2ncnc3ccsc23)s1 + COc1cc2ncnc(Nc3ccc(Oc4ccccc4)cc3)c2cc1OC [SrcI1] (first compound 0.0008 µM, partner dose 2 µM) | 89.5%
NC(=O)Nc1cc(-c2cccc(F)c2)sc1C(=O)N[C@H]1CCCNC1 + O=c1cc(-c2cccc3c2Sc2ccccc2S3)oc(N2CCOCC2)c1 [KU55933] (first compound 0.02 µM, partner dose 1 µM) | 33.4%
CC(C)(C)c1cnc(CSc2cnc(NC(=O)C3CCNCC3)s2)o1 + N#Cc1c(O)c2c(-c3ccc(-c4ccccc4O)cc3)csc2[nH]c1=O [A769662] (first compound 0.01 µM, partner dose 2 µM) | 123%

These molecules were tested on CBRC017 (line from a melanoma biopsy) in the same assay as above. Details: library dose: low library concentration; 72 h.

SMILES | cleaved PARP positive nuclei fraction
C=CCn1c(=O)c2cnc(Nc3ccc(N4CCN(C)CC4)cc3)nc2n1-c1cccc(C(C)(C)O)n1 + O=S(=O)(c1ccccc1)N(CC(F)(F)F)c1ccc(C(O)(C(F)(F)F)C(F)(F)F)cc1 [T0901317] (first compound 0.02 µM, partner dose 1.4 µM) | 101%
O=C(Nc1cccc(Cl)c1)Nc1ncc(CCNc2ncnc3ccsc23)s1 + COc1cc(N2CCC(N3CCN(C)CC3)CC2)ccc1Nc1ncc(Cl)c(Nc2ccccc2S(=O)(=O)C(C)C)n1 [NVP-TAE684] (first compound 0.0008 µM, partner dose 0.08 µM) | 62.8%
C[C@]1(c2nc3c(C(N)=O)cccc3[nH]2)CCCN1 [Veliparib] + COc1cc2ncnc(Nc3ccc(Oc4ccccc4)cc3)c2cc1OC [SrcI1] (first compound 1.4 µM, partner dose 2 µM) | 136%
Cn1c(Nc2ccc(C(F)(F)F)cc2)nc2cc(Oc3ccnc(-c4ncc(C(F)(F)F)[nH]4)c3)ccc21 + COc1ccc(COc2ccc(Cc3cnc(N)nc3N)cc2OC)cc1 [GW2580] (first compound 0.08 µM, partner dose 1 µM) | 103%
COCC[n+]1c2c(n(Cc3cnccn3)c1C)C(=O)c1ccccc1C2=O + COc1ccc(COc2ccc(Cc3cnc(N)nc3N)cc2OC)cc1 [GW2580] (first compound 0.0004 µM, partner dose 1 µM) | 81.2%
Cc1ccc(NC(=O)c2cccc(N(C)C)c2)cc1NC(=O)c1ccc(O)cc1 + COC(=O)c1sccc1S(=O)(=O)Nc1ccc(Nc2ccccc2)cc1OC [GSK0660] (first compound 2 µM, partner dose 1 µM) | 114%
COCC[n+]1c2c(n(Cc3cnccn3)c1C)C(=O)c1ccccc1C2=O + CC(C)CCN1c2nc(Nc3cc(F)c(O)c(F)c3)ncc2N(C)C(=O)C1C [BID1870] (first compound 0.0004 µM, partner dose 0.2 µM) | 82.5%
CC(C)(C)c1cnc(CSc2cnc(NC(=O)C3CCNCC3)s2)o1 + Cc1cc([N+](=O)[O-])ccc1NS(=O)(=O)c1cc(Cl)ccc1Cl [FH535] (first compound 0.01 µM, partner dose 1 µM) | 257%
Cc1ccc(NC(=O)c2cccc(N(C)C)c2)cc1NC(=O)c1ccc(O)cc1 + CCCCCCCCCCCC1=C(O)C(=O)C=C(O)C1=O [Embelin] (first compound 2 µM, partner dose 1.2 µM) | 71.7%
Cc1ccc(NC(=O)c2cccc(N(C)C)c2)cc1NC(=O)c1ccc(O)cc1 + COc1cc(N2CCC(N3CCN(C)CC3)CC2)ccc1Nc1ncc(Cl)c(Nc2ccccc2S(=O)(=O)C(C)C)n1 [NVP-TAE684] (first compound 2 µM, partner dose 0.08 µM) | 114%
Cn1cncc1[C@@](N)(c1ccc(Cl)cc1)c1ccc2c(c1)c(-c1cccc(Cl)c1)cc(=O)n2C [tipifarnib] + CCc1ccc(CCOc2ccc(CC3SC(=O)NC3=O)cc2)nc1 [pioglitazone] (first compound 0.01 µM, partner dose 2 µM) | 94.3%
O=C(CCCCCCC(=O)Nc1ccccc1)NO [vorinostat] + COc1cc(N2CCC(N3CCN(C)CC3)CC2)ccc1Nc1ncc(Cl)c(Nc2ccccc2S(=O)(=O)C(C)C)n1 [NVP-TAE684] (first compound 0.08 µM, partner dose 0.08 µM) | 89.3%
O=C(Nc1cccc(Cl)c1)Nc1ncc(CCNc2ncnc3ccsc23)s1 + COC(=O)c1sccc1S(=O)(=O)Nc1ccc(Nc2ccccc2)cc1OC [GSK0660] (first compound 0.0008 µM, partner dose 1 µM) | 77.5%
C=CCn1c(=O)c2cnc(Nc3ccc(N4CCN(C)CC4)cc3)nc2n1-c1cccc(C(C)(C)O)n1 + CC(C)CCN1c2nc(Nc3cc(F)c(O)c(F)c3)ncc2N(C)C(=O)C1C [BID1870] (first compound 0.02 µM, partner dose 0.2 µM) | 103%
CO[C@@H]1[C@H](N(C)C(=O)c2ccccc2)C[C@H]2O[C@]1(C)n1c3ccccc3c3c4c(c5c6ccccc6n2c5c31)C(=O)NC4 [Midostaurin] + O=S(=O)(c1ccccc1)N(CC(F)(F)F)c1ccc(C(O)(C(F)(F)F)C(F)(F)F)cc1 [T0901317] (first compound 0.08 µM, partner dose 1.4 µM) | 76.4%
Nc1cccc2c1CN(C1CCC(=O)NC1=O)C2=O (stereo not drawn) [lenalidomide] + COC(=O)c1sccc1S(=O)(=O)Nc1ccc(Nc2ccccc2)cc1OC [GSK0660] (first compound 1 µM, partner dose 1 µM) | 76.9%
O=C(Nc1cccc(Cl)c1)Nc1ncc(CCNc2ncnc3ccsc23)s1 + CCc1ccc(CCOc2ccc(CC3SC(=O)NC3=O)cc2)nc1 [pioglitazone] (first compound 0.0008 µM, partner dose 2 µM) | 178%
COCC[n+]1c2c(n(Cc3cnccn3)c1C)C(=O)c1ccccc1C2=O + O=c1cc(-c2cccc3c2Sc2ccccc2S3)oc(N2CCOCC2)c1 [KU55933] (first compound 0.0004 µM, partner dose 1 µM) | 93.9%
Nc1cccc2c1CN(C1CCC(=O)NC1=O)C2=O (stereo not drawn) [lenalidomide] + COc1ccc(-c2ccc3c(N4CCOCC4)nc(N4C[C@@H](C)O[C@@H](C)C4)nc3n2)cc1CO [KU0063794] (first compound 1 µM, partner dose 0.02 µM) | 47.4%
NC(=O)Nc1cc(-c2cccc(F)c2)sc1C(=O)N[C@H]1CCCNC1 + Cn1cc(/C=C2\C(=O)Nc3cccnc32)c2ccccc21 [GW441756] (first compound 0.02 µM, partner dose 0.4 µM) | 66.4%
COc1cc(Nc2ncc(F)c(Nc3ccc4c(n3)NC(=O)C(C)(C)O4)n2)cc(OC)c1OC [Tamatinib] + COc1cc(N2CCC(N3CCN(C)CC3)CC2)ccc1Nc1ncc(Cl)c(Nc2ccccc2S(=O)(=O)C(C)C)n1 [NVP-TAE684] (first compound 0.4 µM, partner dose 0.08 µM) | 63.5%
NC(=O)Nc1cc(-c2cccc(F)c2)sc1C(=O)N[C@H]1CCCNC1 + CCN(CC)CCCCNc1ncc2cc(-c3cc(OC)cc(OC)c3)c(NC(=O)NC(C)(C)C)nc2n1 [PD173074] (first compound 0.02 µM, partner dose 0.1 µM) | 289%
O=C(CCCCCCC(=O)Nc1ccccc1)NO [vorinostat] + CCCCCCCCCCCC1=C(O)C(=O)C=C(O)C1=O [Embelin] (first compound 0.08 µM, partner dose 1.2 µM) | 107%

2 entries from above in a different format.

| SMILES | cleaved PARP positive nuclei fraction |
| --- | --- |
| Cc1ccc(NC(=O)c2cccc(N(C)C)c2)cc1NC(=O)c1ccc(O)cc1 + CCCCCCCCCCCC1=C(O)C(=O)C=C(O)C1=O [Embelin] (first compound 2 µM, partner dose 1.2 µM) | 71.7% |
| Cc1ccc(NC(=O)c2cccc(N(C)C)c2)cc1NC(=O)c1ccc(O)cc1 + COc1cc(N2CCC(N3CCN(C)CC3)CC2)ccc1Nc1ncc(Cl)c(Nc2ccccc2S(=O)(=O)C(C)C)n1 [NVP-TAE684] (first compound 2 µM, partner dose 0.08 µM) | 114% |
